# Experimental data as given in the supplement of paper PMC12823440, “Inhibitors supercharge kinase turnover through native proteolytic circuits” (Nature, 2025).
# By UniProt entry, the sequences of proteins in these tests, tags left out.
# UniProt P42356, whole entry, looked up: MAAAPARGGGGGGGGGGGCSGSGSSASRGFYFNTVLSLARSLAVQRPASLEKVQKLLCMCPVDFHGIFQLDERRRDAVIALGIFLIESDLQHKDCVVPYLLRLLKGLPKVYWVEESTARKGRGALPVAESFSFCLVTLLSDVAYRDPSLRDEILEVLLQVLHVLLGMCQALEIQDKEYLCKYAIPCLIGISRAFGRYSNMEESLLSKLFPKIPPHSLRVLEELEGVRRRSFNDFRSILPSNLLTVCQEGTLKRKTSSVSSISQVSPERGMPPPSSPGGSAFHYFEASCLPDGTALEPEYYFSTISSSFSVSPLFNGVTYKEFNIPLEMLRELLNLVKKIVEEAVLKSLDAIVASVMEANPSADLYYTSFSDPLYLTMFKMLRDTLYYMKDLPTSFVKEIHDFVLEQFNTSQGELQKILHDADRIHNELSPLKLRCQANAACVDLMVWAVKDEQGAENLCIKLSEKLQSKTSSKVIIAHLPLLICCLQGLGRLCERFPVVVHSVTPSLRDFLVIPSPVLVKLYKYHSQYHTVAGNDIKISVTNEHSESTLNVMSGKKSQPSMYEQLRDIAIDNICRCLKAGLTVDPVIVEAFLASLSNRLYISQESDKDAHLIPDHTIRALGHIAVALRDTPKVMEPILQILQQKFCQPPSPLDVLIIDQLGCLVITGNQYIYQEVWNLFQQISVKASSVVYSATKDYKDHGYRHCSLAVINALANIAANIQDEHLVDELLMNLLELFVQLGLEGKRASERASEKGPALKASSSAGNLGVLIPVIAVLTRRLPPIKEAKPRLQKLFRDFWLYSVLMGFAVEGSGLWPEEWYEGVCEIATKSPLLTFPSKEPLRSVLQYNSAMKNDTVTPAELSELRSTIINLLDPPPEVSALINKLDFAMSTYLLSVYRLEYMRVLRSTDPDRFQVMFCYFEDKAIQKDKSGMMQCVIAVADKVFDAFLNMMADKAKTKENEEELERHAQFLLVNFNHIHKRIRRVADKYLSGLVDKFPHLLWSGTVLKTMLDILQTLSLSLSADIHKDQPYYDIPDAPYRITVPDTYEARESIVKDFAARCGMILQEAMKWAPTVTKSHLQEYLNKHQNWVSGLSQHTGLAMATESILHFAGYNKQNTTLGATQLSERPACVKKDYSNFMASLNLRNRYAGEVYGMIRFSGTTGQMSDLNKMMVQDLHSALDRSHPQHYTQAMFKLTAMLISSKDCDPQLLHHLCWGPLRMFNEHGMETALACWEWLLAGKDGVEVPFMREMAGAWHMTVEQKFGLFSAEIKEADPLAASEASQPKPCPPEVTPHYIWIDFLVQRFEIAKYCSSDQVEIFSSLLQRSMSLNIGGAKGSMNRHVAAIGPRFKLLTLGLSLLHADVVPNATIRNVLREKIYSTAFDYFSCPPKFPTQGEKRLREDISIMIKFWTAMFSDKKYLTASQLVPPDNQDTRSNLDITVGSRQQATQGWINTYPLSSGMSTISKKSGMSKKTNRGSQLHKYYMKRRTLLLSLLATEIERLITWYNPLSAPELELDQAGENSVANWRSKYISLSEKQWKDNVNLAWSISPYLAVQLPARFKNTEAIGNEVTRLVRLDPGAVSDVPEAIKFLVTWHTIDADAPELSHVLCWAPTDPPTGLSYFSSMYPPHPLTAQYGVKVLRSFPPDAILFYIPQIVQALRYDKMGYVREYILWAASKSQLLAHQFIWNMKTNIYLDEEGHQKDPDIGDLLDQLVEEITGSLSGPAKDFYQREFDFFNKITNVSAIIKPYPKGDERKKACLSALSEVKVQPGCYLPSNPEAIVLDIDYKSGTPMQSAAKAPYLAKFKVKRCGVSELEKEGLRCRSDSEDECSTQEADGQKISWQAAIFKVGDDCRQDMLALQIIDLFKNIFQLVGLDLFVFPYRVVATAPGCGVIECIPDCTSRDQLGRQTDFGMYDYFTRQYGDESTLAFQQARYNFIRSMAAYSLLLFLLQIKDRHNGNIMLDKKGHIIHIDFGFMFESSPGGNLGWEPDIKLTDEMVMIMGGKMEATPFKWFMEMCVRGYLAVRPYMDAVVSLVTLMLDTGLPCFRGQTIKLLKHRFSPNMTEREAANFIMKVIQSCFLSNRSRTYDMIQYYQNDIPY
# Structures can show the parent of a compound that is named as a salt. This is one part of the list. The calls rarely recur for the same compound in another form.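 Kinases, fused to nanoluciferase, were expressed in K562 cells; luminescence was measured every 4 h from 2 to 18 h as percent of control (DMSO = 100%, positive control = 0%). A time point is decreased if signal falls significantly (2 sigma). Hits were called by the authors by a rule that is not shown; the count of time points alone does not decide it.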
# Target: PIK4CA (UniProt P42356)
# Experiment: number of time points (of 5) at which kinase-Nluc abundance scored as decreased, DMSO-normalised (count); higher = more persistent destabilization
# Conditions: K562; 2-18 h
row,SMILES,number of time points
1,C[C@@H](c1ccc2nccn2c1)n1nnc2ncc(-c3cnn(C)c3)nc21 [Savolitinib] (10 µM),0
2,CN1C(=O)C(Cc2c[nH]c3ccccc23)NC1=S (stereo not drawn) [Necrostatin-1] (10 µM),0
3,C[C@@H]1C(=O)O[C@H](C)[C@H]1C[C@@H](O)[C@](C)(O)[C@H]1CC[C@@]2(O)C3=CC(=O)[C@@H]4C[C@@H](O)[C@@H](O)C[C@]4(C)[C@H]3CC[C@]12C [Cyasterone] (10 µM),0
4,CC(c1ccc(-c2cnc3c(-c4ccc(S(N)(=O)=O)c5ccccc45)cnn3c2)cc1)N1CCCC1 (stereo not drawn) (2.5 µM),0
5,CCn1c(=O)c(-c2ccc(-c3cncc(C)n3)cc2Cl)cc2cnc(NCCC3CCN(C)CC3)nc21 (10 µM),0
6,"O=C(O)c1cc(O)ccc1O [2,5-Dihydroxybenzoic acid] (10 µM)",0
7,CC(=NNC(=O)c1ccc(C)c(Br)c1)c1ccc(O)cc1O [mTOR inhibitor-1] (2.5 µM),0
8,Nc1ncnc2c1ncn2[C@@H]1O[C@H](CO)C[C@H]1O [Cordycepin] (10 µM),0
9,C=CC(=O)Nc1cc2c(Nc3ccc(OCc4ccccn4)c(Cl)c3)ncnc2cc1OCCN1CCOCC1 (10 µM),0
10,Cc1ccc(S(=O)(=O)Nc2ccccc2C=Nc2ccccc2NS(=O)(=O)c2ccc(C)cc2)cc1 (10 µM),0
11,CCOc1cc(C(=O)N2CCC(N3CCN(C)CC3)CC2)ccc1Nc1ncc2c(n1)N(C1CCCC1)c1ccccc1C(=O)N2C (10 µM),0
12,Cn1cnc(-c2cc3nccc(Oc4ccc(NC(=S)NC(=O)Cc5ccccc5)cc4F)c3s2)c1 [MGCD-265 analog] (10 µM),0
13,Cn1c(=O)c(F)c(Nc2ccc(I)cc2F)c2c(=O)n(C[C@@H](O)CO)cnc21 (10 µM),0
14,Nc1ncnc2c1c(-c1ccc(Oc3ccccc3)cc1)nn2C1CCNCC1 [N-piperidine Ibrutinib (hydrochloride)] (10 µM),0
15,Cc1csc(-c2nnc(Nc3ccc(Oc4ncccc4-c4ccnc(N)n4)cc3)c3ccccc23)c1 (2.5 µM),0
16,O=C(O)CCc1ccc(O)c(O)c1 [Dihydrocaffeic acid] (10 µM),0
17,COCCOc1cnc(Sc2cc(C)c(-c3csc(NC(=O)c4ccncc4)n3)c(C)c2)cn1 [T-1101 (tosylate)] (2.5 µM),2
18,Cc1cc(NC(=O)c2cccc(NC(=O)/C=C/CN(C)C)c2)ccc1Nc1nccc(-c2cccnc2)n1 (10 µM),0
19,Cc1c(NC(=O)OC[C@@H]2COCCN2)cn2ncnc(Nc3ccc4c(cnn4Cc4cccc(F)c4)c3)c12 (10 µM),0

# 2 entries from above, as tab-separated lines.
row	SMILES	number of time points
1	C[C@@H](c1ccc2nccn2c1)n1nnc2ncc(-c3cnn(C)c3)nc21 [Savolitinib] (10 µM)	0
2	CN1C(=O)C(Cc2c[nH]c3ccccc23)NC1=S (stereo not drawn) [Necrostatin-1] (10 µM)	0

# More results.

row,SMILES,number of time points
1,Cc1ccc(-c2c(C(=O)CF)n(CCCO)c3ncnc(N)c23)cc1 (10 µM),0
2,Cc1ccc(-c2c(C(=O)CCl)n(CCCO)c3ncnc(N)c23)cc1 (10 µM),0
3,COc1cc(F)c(F)c(Nc2ccc(I)cc2F)c1NS(=O)(=O)C1(C[C@H](O)CO)CC1 [Refametinib] (10 µM),0
4,CCN(CC)c1ccc2cc(C(=O)N3CCN(C(=O)C4=Cc5c(Br)cccc5S4(=O)=O)CC3)c(=O)oc2c1 (2 µM),0
5,COc1ccc(C(=C2C(=O)Nc3ccccc32)c2ccc(OC)cc2)cc1 (10 µM),0
6,N#Cc1ccc2ncnc(NC3CCC(N4CCOCC4)CC3)c2c1 (stereo not drawn) (10 µM),0
7,NCCN1CCN(C/C=C/C(=O)N2CCC[C@@H](n3nc(-c4ccc(Oc5ccccc5)cc4)c4c(N)ncnc43)C2)CC1 [Ibrutinib-MPEA] (10 µM),0
8,CN(CC(=O)N(Cc1ccc(C2CCCCC2)cc1)c1ccc(C(=O)O)cc1)S(=O)(=O)c1c(F)c(F)c(F)c(F)c1F (2.5 µM),0
9,CCn1c(C(=O)N(C2CC2)C2CC2)cc2c3c(ncn3C)c(Nc3cc(C)n(C)n3)nc21 (10 µM),0
10,CC(C)CN(CC(=O)N1CCN(CC(OCc2ccc3ccccc3c2)c2ccc(Cl)cc2Cl)CC1)CC(C)C (stereo not drawn) [LYN-1604 (dihydrochloride)] (2.5 µM),0
11,COc1ccc2[nH]cc(/C=C3\C(=O)Nc4ccc(NC(=O)CCN5CCCCC5)cc43)c2c1 (2.5 µM),0
12,CC(C)=CC(=O)CCC(=O)N1CCN(Cc2cc3nc(-c4cccc5[nH]ncc45)nc(N4CCOCC4)c3s2)CC1 (10 µM),0
13,O=C(NCCO)c1ccc2c(c1)nc(Nc1cccc(Cl)c1)c1ccncc12 [CK2 inhibitor 2] (10 µM),0
14,COc1ccc(CC(=O)Nc2nc3c(s2)CCc2ccccc2-3)cc1OC (10 µM),0
15,c1cc2c(cc1O[C@H]1OC[C@H]3[C@@H]1CO[C@@H]3c1ccc3c(c1)OCO3)OCO2 [Sesamolin] (10 µM),0
16,OCCNC1CCCc2c1[nH]c1ccc(-c3ccccc3)cc21 (stereo not drawn) (2.5 µM),0
17,CNc1nc(Nc2cnn(C3CCN(C4COC4)CC3F)c2Cl)ncc1C(F)(F)F (stereo not drawn) (10 µM),0
18,Cc1cc2cc(Nc3ccnc(Nc4ccc5[nH]c(C)cc5c4)n3)ccc2[nH]1 (2.5 µM),0
19,CC(C)(C)NC(=O)c1cncn1C1CCN(c2ccc(-c3nnc(C(F)(F)F)o3)cn2)CC1 (10 µM),0
